Results: paper PMC5920288
No constants are given. Whether binding was seen depends on the method and setting. For some assays here: Binding can be weak; no strength is given. Each block holds one molecule with its values, some of them ahead of it.

Tests used:
Assay in all cases: two-hybrid; GAL4 yeast two-hybrid; prey in Y187 and bait in Y2HGold, mated; selection on SD-L-T-H with an optimized content of 3-AT and on SD-L-T-H-A
[1] = target: T1, OsNF-YB1 (rice (Oryza sativa subsp. Japonica, cv Kitaake)) (UniProt Q6Z348)
T1 sequence: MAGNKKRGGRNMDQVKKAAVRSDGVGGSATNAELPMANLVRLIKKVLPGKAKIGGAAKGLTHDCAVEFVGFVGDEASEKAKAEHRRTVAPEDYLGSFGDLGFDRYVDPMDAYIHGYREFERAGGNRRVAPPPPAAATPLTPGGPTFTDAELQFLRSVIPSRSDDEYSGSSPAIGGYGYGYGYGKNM

[2] = target: OsNF-YC8 (rice (Oryza sativa subsp. Japonica, cv Kitaake))
[3] = target: OsNF-YC9 (rice (Oryza sativa subsp. Japonica, cv Kitaake))
[4] = target: OsNF-YC10 (rice (Oryza sativa subsp. Japonica, cv Kitaake))
[5] = target: OsNF-YC12 (rice (Oryza sativa subsp. Japonica, cv Kitaake))
[6] = target: OsNF-YC11 (rice (Oryza sativa subsp. Japonica, cv Kitaake))

binding [1]: no binding
Molecule: OsERF72

binding [1]: no binding
Molecule: OsNF-YA8

binding [1]: no binding
Molecule: OsERF74

binding [2]: binds
binding [3]: binds
binding [4]: binds
binding [5]: binds
binding [6]: binds
B1: OsNF-YB1 (protein, UniProt Q6Z348 1-186)
chain: T1 sequence
